HELM strings list residues between dots; [ac] is acetyl, [am] amide, other brackets name non-standard units. * marks the point of attachment. Tfa = O=C(C(F)(F)F)*
Assay: general procedure: Fmoc solid-phase peptide synthesis; TentaGel S RAM, TentaGel S RAM-Lys(Boc)Fmoc (0.22-0.31 mmol/g); preformed Fmoc-protected HObt esters (3 eq.)
Details: purification step, acetate salt

Substance | final HPLC purity [%]
Ac-RYYRWKKKKKKK-NH2 | 98

Same assay, conditions: purification step, chloride salt

Substance | final HPLC purity [%]
Ac-Arg-Tyr-Tyr-Arg-Trp-Lys-Lys-Lys-Lys-Lys-Lys-Lys-NH2 (SEQ ID NO: 35)×9 HCl (chloride salt) | 97

Same assay, conditions: whole synthesis, scale of the general procedure 1 g resin, 0.23-0.24 mmol/g, trifluoroacetate salt

Substance | final HPLC purity
Ac-D-Arg-D-Tyr-D-Tyr-D-Arg-D-Trp-D-Lys-D-Lys-D-Lys-D-Lys-D-Lys-D-Lys-D-Lys-NH2 | better than 97%
Ac-KKKKKKKWRYYN-NH2 | better than 99%
Ac-KKKKKKKWRYYR-NH2 | better than 98%
Ac-KKKKKKRYYRWK-NH2 | better than 93%
Ac-KYYRWKKKKKKK-NH2 | better than 96%
Ac-RYNRWKKKKKKK-NH2 | better than 98%
Ac-RYYRIKKKKKKK-NH2 | better than 97%
Ac-RYYRWK-NH2 | better than 97%
Ac-RYYRWKAKKKKK-NH2 | better than 96%
Ac-RYYRWKC-NH2 | better than 94%
Ac-RYYRWKKKKKK-NH2 | better than 98%
Ac-RYYRWKKKKKKK-NH2 | better than 95%
Ac-RYYRWKKKKKKKC-NH2 | better than 91%
H-CAPPSKKKKKK-NH2 | better than 98%
H-CKKKKKK-NH2 | better than 90%
H-NEEEEERYYRWKKKKKKK-NH2 | better than 98%
PEPTIDE1{[ac].[dK].[dK].[dK].[dK].[dK].[dK].[dK].[dW].[dR].[dY].[dY].[dR].[am]}$$$$V2.0 | better than 98%
Tfa-RYYRWKKKKKKK-NH2 | better than 96%

— patent publication US7550425B2 (Zealand Pharma A/S, priority 2000, dated 2009)
